Some of the results follow. Single values are uncertain here, since repeats match poorly.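 In a drug-repurposing library screen, luminescence reads luciferase driven by eight TEAD-binding elements, stably integrated into human kidney-derived cells. Compounds scoring over five robust Z scores above the plate mean are called hits.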
Test system: HEK293A TEAD-LUC reporter
Test: TEAD-luciferase reporter activity (YAP activation), robust Z score vs plate; higher = stronger YAP/TEAD activation
Details: 24 h

Structure (SMILES) | TEAD-luciferase reporter activity (compound concentration: 200 nM) | TEAD-luciferase reporter activity (compound concentration: 2 uM) | TEAD-luciferase reporter activity (compound concentration: 10 uM)
CCc1nc(N)nc(N)c1OCCCOc1ccccc1CCC(=O)O | inactive: -1.16 | inactive: -0.947 | inactive: -1.53
CS(=O)(=O)CCC#N [Dapansutrile] | inactive: -1.1 | inactive: 0.52 | inactive: -1.27
O=[N+]([O-])OC[C@H]1O[C@@H](n2cnc3c(NC4CCCC4)ncnc32)[C@H](O)[C@@H]1O [trabodenoson] | inactive: -1.45 | inactive: -1.32 | inactive: -0.705
CNCCCC1(c2ccccc2)SC(C)(C)c2ccccc21 (configuration not stated) | inactive: 0.707 |  | inactive: 1.42
C[n+]1ccn(CC(O)c2ccc(NS(C)(=O)=O)cc2)c1 (configuration not stated) | inactive: -0.735 | inactive: -0.635 | inactive: 0.0756
Cn1c(=O)c2[nH]c(Br)nc2n(C)c1=O | inactive: -2 |  | inactive: -0.314
Cn1c(=O)c2[nH]c(Br)nc2n(C)c1=O [Bromotheophylline] |  | inactive: -0.924 | 
Cc1cc(C)c2c3ccccc3n(Cc3ccc(C(C(=O)N[C@@H](CO)c4ccccc4)C4CCCC4)cc3)c2n1 (some centres not stated) [implitapide] | inactive: 0.147 | inactive: 1.54 | inactive: -0.225
Cc1cc(S(N)(=O)=O)ccc1NC(=O)COc1ccc(Cl)cc1C(=O)c1cccc(C#N)c1 | inactive: -0.361 | inactive: -1.73 | inactive: 0.29
Nc1nc(O)c2ncn(CCC(CO)CO)c2n1 [penciclovir] |  | inactive: -0.0862 | 
CCOC(=O)C1CCN(c2nc(N(C)S(=O)(=O)c3ccc(Cl)cc3)ccc2[N+](=O)[O-])CC1 | inactive: -0.0242 | inactive: 1.18 | inactive: 0.856
CC(C)C(=O)c1ccc(O)c(O)c1 | inactive: -0.496 | inactive: -1.3 | inactive: -0.441
C[C@]12CC[C@@H]3c4ccc(OS(N)(=O)=O)cc4CC[C@H]3[C@@H]1CC[C@@H]2O | inactive: -1.22 | inactive: 1.25 | inactive: -1.06
CC1(c2ccc(O)cc2)C(=O)c2c(N3CCNCC3)cc(Cl)cc2N(Cc2ccccc2)C1=O (configuration not stated) | inactive: -0.255 | inactive: -0.456 | inactive: 0.536
CCCCCCCCCC1OCCO1 [SEPA absorption enhancers] | inactive: -0.562 | inactive: 0.492 | inactive: -0.572
Cc1c(F)cccc1CCCCOc1ccc(C#Cc2ccc(F)c3c(CCCC(=O)O)c(C)n(CCCC(=O)O)c23)cc1 [Gemilukast] | inactive: 0.42 | inactive: -0.487 | inactive: 0.432

From the supplement of paper PMC10735217
